Test results: PubChem BioAssay AID1688 (National Center for Advancing Translational Sciences (NCATS), 2009)
The campaign covered roughly 220,000 compounds. About 2,400 (1.1%) were called active. This list was built around the results that the source calls inconclusive (neither active nor inactive); the mix of calls is not that of the screen. Calls come from the whole dose curve; as a rule, active = well fitted inhibition curve with a large enough effect; inconclusive = small, poorly fitted or top-dose-only effect, or effect the other way; inactive = no such curve, though single readings can be large or run the other way. Potencies of inconclusive entries are doubtful fits and often do not repeat.

assay: qHTS Multiplex Assay to Identify Dual Action Probes in a Cell Model of Huntington: Aggregate Formation (GFP); details: PC12 HttQ103-GFP aggregates, Acumen cytometry, 40 h; activity change, negative = inhibition: at 46.1 µM (top of the series) unless noted; note: nearly all actives have a fitted effect of over 60% in size
In short: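 Quantitative HTS on tebufenozide-induced (100 nM) PC12 cells stably expressing polyQ103 Huntingtin exon 1–GFP. Reduction of bright GFP aggregates, detected by laser scanning cytometry after lysis, identified actives across the titration.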
% is set by controls: 0 for no effect and ±100 for the full control effect; potency is the fitted concentration of half-maximal effect.

SMILES	Potency	activity change, negative = inhibition
Cc1ccc2c(c1)[nH]c1c(N3CCN(Cc4ccccc4)CC3)ncnc12	active: 7.08 µM	–
Cc1ccc(C(=O)CSc2nnc(-c3ccccc3N)n2C)cc1	inactive	–
CN(C)c1ccc(/C=C/c2ccc3c4ccccc4ccc3[n+]2-c2ccccc2)cc1	active: 3.98 µM	–
CN(c1cccc(NC(=O)CN(c2ccc(C34CC5CC(CC(C5)C3)C4)cc2)S(C)(=O)=O)c1)S(C)(=O)=O	inconclusive: 35.5 µM [inhibitor, single point]	–
COc1ccc(C2CC(C)=C(C#N)S(=O)(=O)C2C#N)cc1 (stereo unspecified)	–	inactive: -5.24% [at 9.22 µM]
CCOc1ccc(-n2c(C)cc(C(=O)CCl)c2C)cc1	inactive	–
Cc1cc(C(=O)N/N=C/c2cc(Br)ccc2OC(=O)c2ccccc2)n[nH]1	active: 2 µM	–
COc1ccc(OC)c(C(=O)c2ccc(C(=O)c3cc(OC)ccc3OC)cc2)c1	inconclusive: 10 µM [inhibitor, partial curve]	–
COC(=O)c1cc(OC)c(OC)cc1NC(=O)CSc1ccccc1	inactive	–
N#Cc1cc(Oc2cccc3cccnc23)c(-n2nnc3ccccc32)cc1C#N	inactive	–
Cc1ccc(N/N=C(\C#N)C(=N)N2CCCCCC2)cc1	inactive	–
CCOC(=O)c1sc2nccc(N(C)C)c2c1N=CN(C)C	inconclusive: 28.2 µM [inhibitor, single point]	–
CN1CC(c2ccccc2)C2(SC(=S)N(Cc3ccco3)C2=O)C12C(=O)Nc1ccccc12 (stereo unspecified)	inconclusive: 11.2 µM [inhibitor, single point]	–
COCCN1C(=O)C(=O)/C(=C(/O)c2cccc(OC)c2)C1c1ccc(C)o1 (stereo unspecified)	inconclusive: 20 µM [activator, single point]	–
CN1CCN(CC(=O)N2c3ccccc3C(C)(c3ccccc3)CC2(C)C)CC1 (stereo unspecified)	inconclusive: 22.4 µM [inhibitor, single point]	–
COC(=O)/C=C/C(=O)N1CCN(c2ccccc2C)CC1	inconclusive: 35.5 µM [activator, single point]	–
O=C(NCc1cccnc1)C(=O)Nc1ccc([N+](=O)[O-])cc1	inactive	–
C=CCn1c(SCC(=O)c2ccccc2)nnc1-c1ccc2c(c1)OCO2	inconclusive: 35.5 µM [activator, single point]	–
CCOC(=O)/C(=N\Nc1cc(Cl)ccc1Cl)N1CCOCC1	inactive	–
Cc1nn(-c2cc(N3CCCCC3)ccc2N)c(=O)c2ccccc12	inconclusive: 12.6 µM [activator, single point]	–
Nc1nn(-c2ccccc2)c(N)c1N=Nc1ccccc1F	inactive	–
c1ccc(-c2cn(-c3ccccc3)c3ncnc(N4CCCCC4)c23)cc1	inconclusive: 35.5 µM [inhibitor, single point]	–
Cc1ccc2c(c1)c1c3n2CC(=C2C(=O)OC(C)(C)OC2=O)NC3CCC1 (stereo unspecified)	inactive	–
COC(=O)Nc1ccc(S(=O)(=O)N2CCCC(C(=O)Nc3cccc4c3OCCO4)C2)cc1 (stereo unspecified)	inconclusive: 35.5 µM [inhibitor, single point]	–

Retrieved by compound from above (4):
SMILES	Potency	activity change, negative = inhibition
COc1ccc(OC)c(C(=O)c2ccc(C(=O)c3cc(OC)ccc3OC)cc2)c1	inconclusive: 10 µM [inhibitor, partial curve]	–
Cc1ccc(N/N=C(\C#N)C(=N)N2CCCCCC2)cc1	inactive	–
CN1CCN(CC(=O)N2c3ccccc3C(C)(c3ccccc3)CC2(C)C)CC1 (stereo unspecified)	inconclusive: 22.4 µM [inhibitor, single point]	–
CN1CC(c2ccccc2)C2(SC(=S)N(Cc3ccco3)C2=O)C12C(=O)Nc1ccccc12 (stereo unspecified)	inconclusive: 11.2 µM [inhibitor, single point]	–

Next records

SMILES	Potency	activity change, negative = inhibition
CCOC(=O)c1ccc(NC(=O)CN2C(=O)NC3(CCCCCC3)C2=O)cc1	inconclusive: 0.562 µM [activator, full curve, poor fit]	–
CS(=O)(=O)N1CCc2cc(S(=O)(=O)N3CCN(Cc4ccc5c(c4)OCO5)CC3)ccc21	inconclusive: 28.2 µM [inhibitor, single point]	–
COc1ccc(C(=O)NC2CCN(C(=S)Nc3ccccc3C)CC2)cc1	–	inactive: -7.16% [at 9.22 µM]
Clc1ccc(-c2csc(=Nc3cccnc3)n2CCCn2ccnc2)cc1Cl	active: 11.2 µM	–
CN1CCN(c2nc3c(c(=O)[nH]c(=O)n3C)n2CCCSc2ncccn2)CC1	inactive	–
CCc1ccc2[nH]c(=O)c(C(c3nnnn3Cc3ccco3)N3CCC(C)CC3)cc2c1 (stereo unspecified)	inconclusive: 35.5 µM [inhibitor, single point]	–
COC(=O)c1ccccc1COn1c(=O)c(C)[n+]([O-])c2ccccc21	inconclusive: 1 µM [activator, full curve, poor fit]	–
O=C1OC(Nc2ccc3c(c2)OCO3)c2ccccc21 (stereo unspecified)	inconclusive: 5.62 µM [activator, single point]	–
Cc1ccc(N=Nc2ccc(O)c3ncccc23)cc1	inconclusive: 2.51 µM [inhibitor, full curve]	–
CCCNc1nc2c(c(=O)n(C)c(=O)n2C)n1Cc1cccc(C)c1	active: 14.1 µM	–
O=C(NCc1ccccn1)Nc1ccc(Cl)c(Cl)c1	inconclusive: 12.6 µM [inhibitor, partial curve]	–
CC1(C)CC(=O)C2=C(C1)N=C1c3ccccc3C(=O)C1C2c1ccc(Cl)cc1 (stereo unspecified)	inconclusive: 35.5 µM [inhibitor, single point]	–
Cc1ccc(-n2nnnc2Sc2ccc(S(=O)(=O)NCCN(C)C)cc2[N+](=O)[O-])cc1	active: 22.4 µM	–
CCOC(=O)C1C(=O)C=C(c2ccc(C)cc2)CC1c1ccc([N+](=O)[O-])cc1 (stereo unspecified)	inconclusive: 5.62 µM [inhibitor, single point]	–
COc1ccc(Cn2c(C3CC3)nc3ccc(NC(=O)C4CC4)cc3c2=O)cc1	inconclusive: 35.5 µM [activator, single point]	–
O=C(COC(=O)C12CC3CC(CC(C3)C1)C2)Nc1ccc([N+](=O)[O-])cc1Br	inactive	–
COCCOC(=O)c1c(NC(=O)CN2CCCc3ccccc32)sc(C(N)=O)c1C	inconclusive: 35.5 µM [activator, single point]	–
COc1ccccc1N1CCN(C(CNC(=O)C2CCCCC2)c2cccnc2)CC1 (stereo unspecified)	inconclusive: 0.891 µM [inhibitor, single point]	–
CCCCc1c(O)cc(C)[nH]c1=O	–	inactive: 8.43% [at 9.22 µM]
Clc1ccc2nc(-c3ccccc3)nc(C(Cl)Cl)c2c1	active: 1.41 µM	–
O=C(CCCN1C(=O)c2ccccc2C1=O)Nc1ccc(S(=O)(=O)N2CCCCC2)cc1	inconclusive: 25.1 µM [inhibitor, single point]	–
Clc1ccc2nc(-c3ccccn3)c(Nc3ccc4c(c3)OCO4)n2c1	inconclusive: 17.8 µM [inhibitor, single point]	–
CN1/C(=C\C=C2/C(=O)Oc3ccccc3C2=O)C(C)(C)c2ccccc21	active: 7.94 µM	–
COc1ccccc1NC(=O)N(Cc1ccco1)Cc1cc2c(C)ccc(C)c2[nH]c1=O	inactive	–

SMILES	Potency	activity change, negative = inhibition
COc1cc2c(cc1OC)C(c1ccccc1)N(C(=O)CCl)CC2 (stereo unspecified)	inconclusive: 0.631 µM [activator, full curve]	–
Cc1ccc(C#CC[N+]2(CC#Cc3ccc(C)cc3)CCCCC2)cc1	active: 11.2 µM	–
Cc1cc(-c2nc(C)c(C(=O)NNS(=O)(=O)c3ccccc3)s2)no1	–	inactive: -3.61% [at 9.22 µM]
OC(CNCc1ccc(Cl)cc1)(c1ccccc1)c1ccc(F)cc1 (stereo unspecified)	inconclusive: 12.6 µM [inhibitor, single point]	–
COc1ccc(CNCC(O)(c2ccccc2)c2ccc(Cl)cc2)cc1 (stereo unspecified)	inconclusive: 22.4 µM [inhibitor, single point]	–
CCN1C(=O)CSC1=NC12CC3CC(CC(C3)C1)C2	inconclusive: 10 µM [inhibitor, single point]	–
CCN(CC)c1ccc(NC(=O)c2cccc(OC)c2)c(C)c1	inconclusive: 35.5 µM [inhibitor, single point]	–
CC1(C)Cc2c(ccc3ccccc23)C(=O)N1	active: 11.2 µM	–
OC(COc1cccc2ccccc12)CN1CCN(c2ccc(Cl)cc2)CC1 (stereo unspecified)	–	inactive: -11.1% [at 9.22 µM]
Nc1ccc2cn[nH]c2c1	inconclusive: 35.5 µM [inhibitor, single point]	–
Nc1nc(=S)c2ncn(C3OC(CO)C(O)C3O)c2[nH]1 (stereo unspecified)	–	inactive: -7.83% [at 9.22 µM]
COc1ccc([N+](=O)[O-])cc1NCc1ccccc1	inconclusive: 3.98 µM [activator, partial curve]	–
O=C(Cn1nc(-c2ccccc2F)ccc1=O)Nc1ccc(S(=O)(=O)N2CCCCCC2)cc1	inactive	–
CCCCCCN1N=C(C)C(C(=O)c2ccc(Cl)cc2)C1=O (stereo unspecified)	inconclusive: 12.6 µM [inhibitor, partial curve]	–
COc1ccccc1-n1nnnc1SCc1cc2c(cc1Br)OCO2	inconclusive: 35.5 µM [inhibitor, partial curve, poor fit]	–
COc1ccc(N=CC2=C(O)CC(c3ccccc3)CC2=O)c(OC)c1 (stereo unspecified)	inactive	–
CCOC(=O)Cn1c(CN2CCN(C(c3ccccc3)c3ccccc3)CC2)nc2c1c(=O)n(C)c(=O)n2C	inactive	–
Clc1cccc(CSc2nnc(-c3sccc3-n3cccc3)o2)c1	inconclusive: 35.5 µM [inhibitor, single point]	–
CC(=O)c1c(C)[nH]c(C(=O)Nc2nc(-c3ccc(Cl)cc3)cs2)c1C	inconclusive: 5.62 µM [inhibitor, single point]	–
Cc1ccc2ccc(C(Nc3ccccn3)c3ccccc3)c(O)c2n1 (stereo unspecified)	inconclusive: 35.5 µM [inhibitor, single point]	–
COc1ccc(/C=C/C(=O)C2C(=O)C=C(C)OC2=O)cc1O (stereo unspecified)	inconclusive: 15.8 µM [activator, partial curve]	–
COc1ccc(N(CC(=O)NCc2ccncc2)S(=O)(=O)c2ccccc2[N+](=O)[O-])c(OC)c1	–	inactive: 9.58% [at 9.22 µM]
N#C/C(=C\c1ccc(N2CCOCC2)o1)c1ccccc1	inconclusive: 22.4 µM [inhibitor, single point]	–
